The target in this experiment is T1, myc-tagged KCC2b (UniProt Q91V14).
T1 sequence: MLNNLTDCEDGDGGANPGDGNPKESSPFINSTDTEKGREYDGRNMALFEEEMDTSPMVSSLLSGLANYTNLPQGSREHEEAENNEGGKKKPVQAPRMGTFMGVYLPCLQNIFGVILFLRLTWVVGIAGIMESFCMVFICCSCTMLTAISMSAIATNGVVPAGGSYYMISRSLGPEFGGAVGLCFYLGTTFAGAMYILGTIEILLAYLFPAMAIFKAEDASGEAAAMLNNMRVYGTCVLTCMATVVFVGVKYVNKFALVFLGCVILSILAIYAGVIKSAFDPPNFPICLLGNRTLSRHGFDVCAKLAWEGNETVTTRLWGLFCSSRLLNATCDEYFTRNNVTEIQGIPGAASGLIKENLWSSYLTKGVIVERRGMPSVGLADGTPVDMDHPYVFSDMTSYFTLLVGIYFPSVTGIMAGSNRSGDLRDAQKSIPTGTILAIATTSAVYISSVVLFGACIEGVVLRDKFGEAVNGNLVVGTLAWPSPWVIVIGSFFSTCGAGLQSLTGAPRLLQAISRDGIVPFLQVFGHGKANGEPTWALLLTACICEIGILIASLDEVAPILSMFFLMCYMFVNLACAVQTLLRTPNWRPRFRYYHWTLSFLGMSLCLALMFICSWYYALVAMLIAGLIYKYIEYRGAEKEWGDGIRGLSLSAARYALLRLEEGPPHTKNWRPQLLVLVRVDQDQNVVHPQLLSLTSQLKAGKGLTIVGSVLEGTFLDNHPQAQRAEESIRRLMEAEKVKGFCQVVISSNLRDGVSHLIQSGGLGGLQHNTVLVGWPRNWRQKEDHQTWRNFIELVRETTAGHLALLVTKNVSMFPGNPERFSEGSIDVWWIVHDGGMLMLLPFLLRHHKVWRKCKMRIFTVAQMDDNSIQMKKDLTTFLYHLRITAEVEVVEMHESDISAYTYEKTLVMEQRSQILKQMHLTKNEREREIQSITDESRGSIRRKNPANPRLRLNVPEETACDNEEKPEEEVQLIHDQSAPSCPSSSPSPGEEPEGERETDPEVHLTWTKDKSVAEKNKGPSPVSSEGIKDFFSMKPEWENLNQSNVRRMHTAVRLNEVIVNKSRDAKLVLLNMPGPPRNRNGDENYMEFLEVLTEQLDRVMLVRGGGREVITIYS
Nature of the experiment: co-IP; COS7 cells co-transfected with myc-tagged KCC2b and GFP-tagged PACSIN constructs; lysed in modified RIPA buffer; precipitated with anti-N-terminal KCC2b antibody (4 hr, 4°C); immunoblot.

No constants are given. Whether binding was seen depends on the method and setting. Binding seen in cells or lysates may run through a third protein. Binding can be weak; no strength is given. Where a sequence is shown, tags or fusion partners need not be part of it.

For the substance “eGFP-PACSIN1 F-BAR domain alone (mouse) (domain or fragment)”, the binding result is reported as “no binding”.

Take “eGFP-PACSIN1 VAR region alone (mouse) (domain or fragment)”: the binding result is reported as “binds”.

As for “eGFP-PACSIN1 without the F-BAR region (mouse) (domain or fragment)”, the binding result is “binds”.

With “eGFP-PACSIN1 without the SH3 domain (mouse) (domain or fragment)”, the binding entry is “binds”.

(Values after publication PMC5640428.)
